# Assay results from the supplement of paper PMC12067093, “Discovery and optimisation of a covalent ligand for TRIM25 and its application to targeted protein ubiquitination” (Chemical Science, 2025).
# Sequences of proteins named here, by UniProt entry; tags and fusion partners are left off. A change or cut given only in a name is not applied to a line headed by its entry.
# UniProt Q6NXR4: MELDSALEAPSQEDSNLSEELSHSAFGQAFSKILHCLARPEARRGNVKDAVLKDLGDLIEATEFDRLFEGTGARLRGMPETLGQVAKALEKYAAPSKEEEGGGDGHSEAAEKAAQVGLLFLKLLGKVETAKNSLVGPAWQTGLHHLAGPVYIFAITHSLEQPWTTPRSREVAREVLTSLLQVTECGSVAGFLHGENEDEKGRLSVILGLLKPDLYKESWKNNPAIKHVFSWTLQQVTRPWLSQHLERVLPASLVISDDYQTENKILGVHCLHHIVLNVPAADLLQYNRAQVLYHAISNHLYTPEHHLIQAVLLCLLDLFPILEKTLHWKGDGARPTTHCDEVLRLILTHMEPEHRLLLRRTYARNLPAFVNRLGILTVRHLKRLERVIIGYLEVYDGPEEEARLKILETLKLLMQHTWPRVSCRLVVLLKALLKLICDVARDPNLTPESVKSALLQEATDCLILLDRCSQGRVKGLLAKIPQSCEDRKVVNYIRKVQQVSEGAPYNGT
# The other results are listed elsewhere or left out.
# Target: TTI2_Q6NXR4_270_ILGVHCLHHIVLNVPAADLLQYNR (UniProt Q6NXR4)
# Assay: probe-labelled cysteine peptide fold change vs DMSO (competition) (log2 fold change); higher = less target engagement (more negative = stronger competition)
# Conditions: THP-1, incubation time: 4 h
# 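Note: competitive chemoproteomic profiling in live THP-1 cells with an iodoacetamide desthiobiotin (IA-DTB) probe, comparing probe-labelled peptide intensities in compound-treated cells against DMSO-treated controls.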
smiles,measurement,setting,value
CC1Cc2ccccc2N1C(=O)C1CCCN(C(=O)CCl)C1 (mixture of isomers) [TRIM25 ligand 11 (diastereomer mixture)],probe-labelled cysteine peptide fold change,10 µM,0.0973
same,probe-labelled cysteine peptide fold change,50 µM,0.314
